Measurements reported in paper PMC10874017.
No constants are given. Whether binding was seen depends on the method and setting. In cells and extracts the contact can be indirect. Some entries that bind do so weakly or less than the wild type.

T1: SHC SH2 domain-binding protein 1 (SHCBP1) (human (endogenous in tumour cell lines; line not named)) (UniProt Q8NEM2)
T1 sequence: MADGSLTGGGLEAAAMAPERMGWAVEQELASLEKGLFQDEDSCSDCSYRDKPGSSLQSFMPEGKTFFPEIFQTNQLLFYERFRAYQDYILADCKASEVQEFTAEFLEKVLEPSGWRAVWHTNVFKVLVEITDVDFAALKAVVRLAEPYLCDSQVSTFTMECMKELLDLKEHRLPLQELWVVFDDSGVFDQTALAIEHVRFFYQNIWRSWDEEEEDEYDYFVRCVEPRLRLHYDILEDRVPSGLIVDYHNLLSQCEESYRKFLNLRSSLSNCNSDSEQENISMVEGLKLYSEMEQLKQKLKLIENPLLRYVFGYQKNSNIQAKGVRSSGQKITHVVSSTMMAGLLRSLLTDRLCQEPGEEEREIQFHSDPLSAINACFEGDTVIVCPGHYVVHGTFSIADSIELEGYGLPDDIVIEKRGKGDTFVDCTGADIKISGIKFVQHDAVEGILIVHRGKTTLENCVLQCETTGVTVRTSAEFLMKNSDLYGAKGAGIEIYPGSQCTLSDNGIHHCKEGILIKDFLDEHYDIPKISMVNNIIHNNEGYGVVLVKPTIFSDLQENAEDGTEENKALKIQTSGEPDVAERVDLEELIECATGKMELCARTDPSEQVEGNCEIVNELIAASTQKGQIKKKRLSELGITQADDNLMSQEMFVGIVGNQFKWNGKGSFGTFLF


Molecular target: T1, SHC SH2 domain-binding protein 1 (SHCBP1) (human (endogenous in tumour cell lines; line not named))
Assay: co-IP; endogenous proteins; asynchronous tumour cells lysed in NP-40 buffer with PMSF and protease inhibitors; 1 mg lysate protein with 30 ul protein A/G agarose beads and 5 ug primary antibody overnight at 4 °C; western blotting

binding	Binder
binds	RACGAP1 (protein, UniProt Q9H0H5 1-632) MDTMMLNVRNLFEQLVRRVEILSEGNEVQFIQLAKDFEDFRKKWQRTDHELGKYKDLLMKAETERSALDVKLKHARNQVDVEIKRRQRAEADCEKLERQIQLIREMLMCDTSGSIQLSEEQKSALAFLNRGQPSSSNAGNKRLSTIDESGSILSDISFDKTDESLDWDSSLVKTFKLKKREKRRSTSRQFVDGPPGPVKKTRSIGSAVDQGNESIVAKTTVTVPNDGGPIEAVSTIETVPYWTRSRRKTGTLQPWNSDSTLNSRQLEPRTETDSVGTPQSNGGMRLHDFVSKTVIKPESCVPCGKRIKFGKLSLKCRDCRVVSHPECRDRCPLPCIPTLIGTPVKIGEGMLADFVSQTSPMIPSIVVHCVNEIEQRGLTETGLYRISGCDRTVKELKEKFLRVKTVPLLSKVDDIHAICSLLKDFLRNLKEPLLTFRLNRAFMEAAEITDEDNSIAAMYQAVGELPQANRDTLAFLMIHLQRVAQSPHTKMDVANLAKVFGPTIVAHAVPNPDPVTMLQDIKRQPKVVERLLSLPLEYWSQFMMVEQENIDPLHVIENSNAFSTPQTPDIKVSLLGPVTTPEHQLLKTPSSSSLSQRVRSTLTKNTPRFGSKSKSATNLGRQGNFFASPMLK
binds	MKLP1 (protein, UniProt Q02241 1-960) MKSARAKTPRKPTVKKGSQTNLKDPVGVYCRVRPLGFPDQECCIEVINNTTVQLHTPEGYRLNRNGDYKETQYSFKQVFGTHTTQKELFDVVANPLVNDLIHGKNGLLFTYGVTGSGKTHTMTGSPGEGGLLPRCLDMIFNSIGSFQAKRYVFKSNDRNSMDIQCEVDALLERQKREAMPNPKTSSSKRQVDPEFADMITVQEFCKAEEVDEDSVYGVFVSYIEIYNNYIYDLLEEVPFDPIKPKPPQSKLLREDKNHNMYVAGCTEVEVKSTEEAFEVFWRGQKKRRIANTHLNRESSRSHSVFNIKLVQAPLDADGDNVLQEKEQITISQLSLVDLAGSERTNRTRAEGNRLREAGNINQSLMTLRTCMDVLRENQMYGTNKMVPYRDSKLTHLFKNYFDGEGKVRMIVCVNPKAEDYEENLQVMRFAEVTQEVEVARPVDKAICGLTPGRRYRNQPRGPVGNEPLVTDVVLQSFPPLPSCEILDINDEQTLPRLIEALEKRHNLRQMMIDEFNKQSNAFKALLQEFDNAVLSKENHMQGKLNEKEKMISGQKLEIERLEKKNKTLEYKIEILEKTTTIYEEDKRNLQQELETQNQKLQRQFSDKRRLEARLQGMVTETTMKWEKECERRVAAKQLEMQNKLWVKDEKLKQLKAIVTEPKTEKPERPSRERDREKVTQRSVSPSPVPLSSNYIAQISNGQQLMSQPQLHRRSNSCSSISVASCISEWEQKIPTYNTPLKVTSIARRRQQEPGQSKTCIVSDRRRGMYWTEGREVVPTFRNEIEIEEDHCGRLLFQPDQNAPPIRLRHRRSRSAGDRWVDHKPASNMQTETVMQPHVPHAITVSVANEKALAKCEKYMLTHQELASDGEIETKLIKGDIYKTRGGGQSVQFTDIETLKQESPNGSRKRRSSTVAPAQPDGAESEWTDVETRCSVAVEMRAGSQLGPGYQHHAQPKRKKP
